From PubChem BioAssay AID2685 (National Center for Advancing Translational Sciences (NCATS), 2010)
The list shows a part of the results. The main result of the screen is listed elsewhere. These columns were measured beside it and carry no call. The list favours compounds with an active or inconclusive main result. The note in brackets gives the kind of curve behind each potency; many fits are weak.

Assay: qHTS Assay for Lipid Storage Modulators in Drosophila S3 Cells;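 for cell number change: cells counted by Cell Tracker Red CMTPX staining in the red channel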
Details: BODIPY lipid droplet fluorescence, 18-24 h; for cell number change: measured here: cell count max response, cells fed with added oleic acid
Outline: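 Drosophila S3 cells got compounds at several concentrations plus oleic acid (400 uM solution). Laser-scanning cytometry with 488 nm excitation read lipid droplets at 500-530 nm and cells at 575-640 nm. Percent activity was relative to 20 uM Triacsin C.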

[1] = measured here: cell number channel AC50, cells fed with added oleic acid
[2] = measured here: lipid fluorescence (Fed channel) AC50, cells fed with added oleic acid

Cc1ccc2c(CSc3nncn3C)cc(=O)oc2c1C
AC50 [1]: 6.51 µM [rising, single point]

Cn1c(=O)c2c(ncn2CC(=O)N/N=C/C=C/c2ccccc2[N+](=O)[O-])n(C)c1=O
AC50 [2]: 25.9 µM [rising, single point]

COc1ccc(/C=N/Nc2cc(N(C)C)nc(N(C)C)n2)cc1
cell number change: -14.1%
AC50 [2]: 1.84 µM [falling, partial curve]

CCN1CCN(Cc2oc(CO)cc(=O)c2O)CC1
cell number change: -37.5%
AC50 [2]: 0.0651 µM [falling, full curve, poor fit]

NC(=O)c1ccc(Cn2c(C(=O)c3cc(Cl)c(N)c(Cl)c3)c3ccccc3[n+]2[O-])cc1
cell number change: -0.451%

O=C(CNS(=O)(=O)c1cccs1)NCc1ccccc1
cell number change: -6.03%
AC50 [1]: 1.84 µM [falling, partial curve]
AC50 [2]: 1.84 µM [falling, partial curve]

COc1ccc(OC)c(NC(=O)CSc2nc3ccccc3c3nc4ccccc4n23)c1
cell number change: -44.4%
AC50 [1]: 1.84 µM [falling, full curve]
AC50 [2]: 6.51 µM [falling, partial curve, poor fit]

CCOC(=O)C(NC(C)=O)C(=O)Nc1c(C)cccc1C (centres undefined)
cell number change: 17.5%

CC(=O)c1ccc(NC(=S)NC(=O)/C=C/c2ccccc2)cc1
cell number change: -3.85%
AC50 [2]: 0.461 µM [rising, full curve, poor fit]

CC(OC(=O)c1ccccn1)C(=O)Nc1ccc2c(c1)OCCO2 (centres undefined)
cell number change: -17.2%
AC50 [2]: 29.1 µM [rising, single point]

CC1(c2ccc3ccccc3c2)NC(=O)N(CC(=O)N2CCN(Cc3ccc(C#N)cc3)CC2)C1=O (centres undefined)
AC50 [1]: 0.164 µM [rising, full curve, poor fit]

CC(C)(C)C(=O)Oc1cccc(Nc2ncnc3ccccc23)c1
cell number change: -33.1%
AC50 [1]: 1.64 µM [falling, partial curve, poor fit]
AC50 [2]: 23.1 µM [falling, partial curve]

COc1ccc(-n2nc(C(=O)NCC(=O)NC3CCCCC3)c3ccccc3c2=O)c(OC)c1
cell number change: 18%
AC50 [2]: 6.51 µM [falling, single point]

O=C(O)Cc1sc(Nc2ccccc2)nc1-c1ccc(Cl)cc1
cell number change: -7.33%
AC50 [1]: 0.0058 µM [falling, full curve, poor fit]

COc1ccc(C)cc1NC(=O)NNC(=O)c1cc2ccccc2cc1O
cell number change: 6.42%

C=C1CSc2nc3ccccc3c(=O)n21
cell number change: -15.9%
AC50 [2]: 14.6 µM [rising, partial curve]

CCCCc1ccc(NC(=S)Nc2ccc(Cl)c(S(=O)(=O)N(C)C)c2)cc1
cell number change: 33.3%
AC50 [1]: 14.6 µM [rising, single point]
AC50 [2]: 36.6 µM [falling, partial curve, poor fit]

CN(c1ccc(OCc2ccc([N+](=O)[O-])cc2)cc1)S(=O)(=O)c1ccccc1
cell number change: -21.9%
AC50 [2]: 6.51 µM [rising, single point]

CN(C)c1ccc(/C=C(\NC(=O)c2ccccc2)C(=O)N/N=C/c2ccc(C(=O)O)cc2)cc1
cell number change: 9.46%
AC50 [2]: 11.6 µM [rising, single point]

CCOc1ccc2nc(COC(=O)c3ccncc3)c(C(=O)c3ccccc3)[n+]([O-])c2c1
cell number change: -46.9%
AC50 [2]: 29.1 µM [falling, single point]

COc1cccc(-n2nc(-c3ccnn3-c3ccc(C)cc3)c(=O)n(C)c2=O)c1
cell number change: 133%
AC50 [1]: 23.1 µM [rising, partial curve, poor fit]

COc1ccc(N2CCN(C(=O)COC(=O)c3cnccn3)CC2)cc1
cell number change: -29.4%
AC50 [2]: 5.8 µM [falling, full curve]

Cc1c(C#N)c(O)[nH]c(=O)c1N=Nc1ccc(S(N)(=O)=O)cc1
AC50 [2]: 0.517 µM [rising, partial curve, poor fit]

O=C(Nc1ccncc1)Nc1ccc(Br)cc1Cl
cell number change: 18.8%

Cc1nc(C(=O)Nc2ccc(Cl)cc2)sc1C1(C)CC(c2ccccc2)=NO1 (centres undefined)
cell number change: 20.7%
AC50 [2]: 18.4 µM [rising, partial curve]

CC(C)N1CC(O)=C(c2nc3ccccc3[nH]2)C1=N
cell number change: -2.65%
AC50 [2]: 0.461 µM [rising, full curve, poor fit]

CCc1nnc(NS(=O)(=O)c2ccc(NC(=O)c3ccccc3OC)cc2)s1
cell number change: -7.91%
AC50 [2]: 29.1 µM [rising, single point]

Cc1ccc(-n2c(-c3ccco3)nc3nc4ccccc4nc32)cc1F
cell number change: -70.5%
AC50 [1]: 23.1 µM [falling, partial curve]
AC50 [2]: 23.1 µM [falling, partial curve]

Cc1ccc(S(=O)(=O)n2nc(C)c(S(=O)(=O)N3CCOCC3)c2C)cc1
cell number change: 79%
AC50 [1]: 16.4 µM [rising, single point]
AC50 [2]: 25.9 µM [rising, partial curve, poor fit]

OCCN=C(c1ccccc1)C12CN3CN(CN(C3)C1)C2
cell number change: -0.538%
AC50 [2]: 0.116 µM [falling, full curve]

Cc1ccc(S(=O)(=O)N(CC(=O)Nc2cccnc2)c2cccc([N+](=O)[O-])c2)cc1
cell number change: -14%
AC50 [2]: 29.1 µM [falling, single point]

Cc1cc(NS(=O)(=O)c2ccc(NC(=O)c3ccc([N+](=O)[O-])c(Cl)c3)cc2)no1
cell number change: 15.7%
AC50 [2]: 29.1 µM [rising, single point]

COC(=O)Cc1ccc(NC(C)=O)cc1
cell number change: 6.79%

COc1ccc(NC(=O)CSc2nc(O)cc(=O)n2-c2ccccc2)cc1
cell number change: 3.47%
AC50 [2]: 2.59 µM [rising, full curve]

CCOC(=O)N1CCC(N(CCN(C)C)C(=S)Nc2cccc(Cl)c2C)CC1
cell number change: 17%
AC50 [2]: 0.517 µM [rising, full curve, poor fit]

Nc1nc(Cl)nc2ccc(Br)cc12
cell number change: 21.5%

CCOC(=O)C1(CCCc2ccccc2)CCN(S(C)(=O)=O)CC1
cell number change: 12.5%
AC50 [2]: 6.51 µM [falling, single point]

CC1CCc2nc(NC(=O)Nc3ccc4c(c3)OCO4)sc2C1 (centres undefined)
cell number change: -40.9%
AC50 [1]: 29.1 µM [falling, single point]
AC50 [2]: 18.4 µM [falling, partial curve, poor fit]

CCOC(=O)c1ccc(NC(=O)Nc2ccn(C)n2)cc1
cell number change: 13.4%
AC50 [2]: 0.0058 µM [rising, full curve, poor fit]

CCNC(=O)/C(C#N)=C/c1c(N2CCOCC2)nc2ccccn2c1=O
cell number change: -12.7%
AC50 [1]: 6.51 µM [rising, single point]
AC50 [2]: 6.51 µM [rising, single point]

O=C(CNCc1cccc2ccccc12)Nc1ccccc1[N+](=O)[O-]
cell number change: 48.6%
AC50 [1]: 7.31 µM [rising, partial curve, poor fit]

COc1ccccc1C(=O)N(C1=NC(C)CS1)c1ccc(Cl)cc1 (centres undefined)
cell number change: 38.9%
AC50 [1]: 12.6 µM [rising, partial curve, poor fit]

CCn1nc(C(=O)OCC(=O)NC(C)C)c2ccccc2c1=O
cell number change: 0.906%
AC50 [1]: 0.00461 µM [rising, full curve, poor fit]
AC50 [2]: 0.00461 µM [rising, full curve, poor fit]

COc1cccc(Cn2nnc(C(=O)NCc3ccc(F)cc3)c2N)c1
cell number change: 53.5%
AC50 [1]: 1.84 µM [rising, full curve]
AC50 [2]: 1.3 µM [rising, full curve]

Cn1cc(Cl)c(C(=O)NC2CCCC2)n1
cell number change: -38.9%
AC50 [1]: 1.16 µM [falling, full curve]

CCOc1ccc(S(=O)(=O)N(CC(=O)NCC2CCCO2)c2ccc(F)cc2)cc1 (centres undefined)
cell number change: -12.6%

CC(C)CNC(=S)NC1CCCC1
cell number change: -63.7%
AC50 [1]: 0.58 µM [falling, full curve]
AC50 [2]: 29.1 µM [falling, single point]

CCOc1ccc(C(=O)N(c2ccccn2)C2CCCCC2)cc1
cell number change: -10.9%
AC50 [2]: 16.4 µM [falling, single point]

O=C1CCC(=O)N1c1ccc(NCc2ccccc2Cl)c([N+](=O)[O-])c1
cell number change: 11%
AC50 [2]: 0.651 µM [falling, single point]

O=C(CN1CCN(C(c2ccccc2)c2ccccc2)CC1)Nc1ccc(N2CCOCC2)cc1
AC50 [1]: 5.17 µM [falling, single point]
AC50 [2]: 6.51 µM [falling, single point]

Cc1ccc(S(=O)(=O)N(C)C)cc1NC(=O)COC(=O)Cc1ccccc1F
AC50 [1]: 3.66 µM [falling, single point]

COC(=O)c1ccccc1NC(=O)C12CCC(C)(C(=O)O1)C2(C)C (centres undefined)
cell number change: 15.1%

O=C(Nc1ccc(Cl)c(Cl)c1)N(Cc1cccnc1)Cc1ccco1
cell number change: 3.65%
AC50 [1]: 6.51 µM [falling, single point]
AC50 [2]: 29.1 µM [falling, single point]

O=C(Nc1cccnc1)Nc1ccc2c(c1)OCO2
AC50 [1]: 0.517 µM [rising, full curve]

COc1ccc(OC)c(CC(=O)NC(c2ccccc2)c2ccccc2)c1
cell number change: 7.62%
AC50 [1]: 0.058 µM [rising, full curve, poor fit]

Cc1nc(Nc2cnc(/C=C/c3cc(C(=O)Nc4cccc(C(F)(F)F)c4)ccc3C)cn2)cc(N2CCNCC2)n1
cell number change: -22.5%
AC50 [2]: 29.1 µM [falling, single point]

C=CCOc1ccc(CNC(C)(C)C)cc1OC
cell number change: -7.35%
AC50 [2]: 2.31 µM [falling, partial curve]

Cc1ccc(N2C(=O)[C@@H]3[C@H](C2=O)C2CCCN2[C@@H]3C(=O)c2ccccc2)cc1 (some centres undefined)
cell number change: -31.2%
AC50 [1]: 29.1 µM [falling, single point]
